# This is a selection; strong and weak results do not stand in their true shares. At the low end of the ranking the order means little.
# The chains behind the UniProt entries cited, without tags or fusion partners. Where a name states a change or a piece, a line headed by the entry shows the natural chain unless it says otherwise.
# UniProt O43186: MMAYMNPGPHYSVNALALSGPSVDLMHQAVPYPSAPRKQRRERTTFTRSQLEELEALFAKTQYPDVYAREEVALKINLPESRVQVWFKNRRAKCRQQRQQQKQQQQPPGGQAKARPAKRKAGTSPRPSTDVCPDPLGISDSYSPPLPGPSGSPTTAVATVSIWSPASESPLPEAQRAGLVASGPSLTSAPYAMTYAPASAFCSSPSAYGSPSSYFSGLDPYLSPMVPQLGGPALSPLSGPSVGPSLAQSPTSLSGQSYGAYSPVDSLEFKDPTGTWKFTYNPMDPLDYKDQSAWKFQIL
# Target: CRX (UniProt O43186)
# Assay: DAPPL (digital affinity profiling via proximity ligation, sequencing)
# Settings: 10 mM Tris-HCl pH 7.5, 50 mM NaCl, 1 mM DTT, 4% glycerol, room temperature, 30 min; GST-TFs on glutathione beads, 16-mer random dsDNA library, 0.1% …; high values mean tight binding; double strand, one strand shown; scale: fold enrichment (6-mer frequency, TF over GST control)
row,Sequence,binding signal
1,AGCATC,0.886
2,GAAGCG,0.817
3,CGACTG,0.825
4,ACCCCA,0.927
5,ACAGCC,0.803
6,ATTGTT,1.55
7,CATTAT,1.65
8,GTACGA,0.831
9,TGGTGC,0.799
10,TTTGGA,1.48
11,GCACTC,0.978
12,GTACAA,0.847
13,CTATTG,1.14
14,CGCACA,0.746
15,TCTATT,1.37
16,TTCGGT,1
17,ACTAGG,0.951
18,CTTCGT,1.22
19,CGTATC,0.964
20,ATGGTC,0.977

# Exported tab-delimited: part of the list above
row	Sequence	binding signal
6	ATTGTT	1.55
7	CATTAT	1.65
8	GTACGA	0.831
9	TGGTGC	0.799
10	TTTGGA	1.48
11	GCACTC	0.978
12	GTACAA	0.847
13	CTATTG	1.14
14	CGCACA	0.746
15	TCTATT	1.37
16	TTCGGT	1

# Continued.

row,Sequence,binding signal
1,CCTTAG,1.28
2,TTTGTA,1.89
3,AGTCCC,0.899
4,ACCCCC,0.985
5,AATATG,1.1
6,ATAAGA,1.97
7,TCGTCT,1.37
8,CAATCT,1.42
9,ATCTTA,2.11
10,ATACTC,1.37
11,ACTCAA,1.12
12,TGCACA,0.835
13,CGGTTC,0.715
14,GCCCAT,0.892
15,CTCCAT,1.19
16,CGCGCC,0.814
17,CCCTCA,0.975
18,CTTAGT,1.98
19,CCGAAA,1.28

# Source: PMC7862700
